According to the supplement of paper PMC10849652:
Some of the results follow.

The chains behind the UniProt entries cited, without tags or fusion partners. Where a name states a change or a piece, a line headed by the entry shows the natural chain unless it says otherwise.
UniProt P41161: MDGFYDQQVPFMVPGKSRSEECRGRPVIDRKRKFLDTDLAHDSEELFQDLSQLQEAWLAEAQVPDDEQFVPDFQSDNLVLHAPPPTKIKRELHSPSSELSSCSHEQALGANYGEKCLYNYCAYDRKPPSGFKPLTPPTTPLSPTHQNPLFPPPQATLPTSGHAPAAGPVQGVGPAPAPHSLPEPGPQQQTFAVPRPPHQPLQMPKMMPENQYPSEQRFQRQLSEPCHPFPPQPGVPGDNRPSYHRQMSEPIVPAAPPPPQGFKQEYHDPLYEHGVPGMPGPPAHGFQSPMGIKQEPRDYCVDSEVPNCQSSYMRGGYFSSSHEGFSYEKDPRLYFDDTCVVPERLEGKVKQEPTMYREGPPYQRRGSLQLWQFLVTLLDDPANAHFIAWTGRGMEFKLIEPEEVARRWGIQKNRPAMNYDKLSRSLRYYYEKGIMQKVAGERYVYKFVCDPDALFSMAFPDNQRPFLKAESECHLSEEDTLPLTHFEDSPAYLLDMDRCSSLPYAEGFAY
UniProt A2RU67: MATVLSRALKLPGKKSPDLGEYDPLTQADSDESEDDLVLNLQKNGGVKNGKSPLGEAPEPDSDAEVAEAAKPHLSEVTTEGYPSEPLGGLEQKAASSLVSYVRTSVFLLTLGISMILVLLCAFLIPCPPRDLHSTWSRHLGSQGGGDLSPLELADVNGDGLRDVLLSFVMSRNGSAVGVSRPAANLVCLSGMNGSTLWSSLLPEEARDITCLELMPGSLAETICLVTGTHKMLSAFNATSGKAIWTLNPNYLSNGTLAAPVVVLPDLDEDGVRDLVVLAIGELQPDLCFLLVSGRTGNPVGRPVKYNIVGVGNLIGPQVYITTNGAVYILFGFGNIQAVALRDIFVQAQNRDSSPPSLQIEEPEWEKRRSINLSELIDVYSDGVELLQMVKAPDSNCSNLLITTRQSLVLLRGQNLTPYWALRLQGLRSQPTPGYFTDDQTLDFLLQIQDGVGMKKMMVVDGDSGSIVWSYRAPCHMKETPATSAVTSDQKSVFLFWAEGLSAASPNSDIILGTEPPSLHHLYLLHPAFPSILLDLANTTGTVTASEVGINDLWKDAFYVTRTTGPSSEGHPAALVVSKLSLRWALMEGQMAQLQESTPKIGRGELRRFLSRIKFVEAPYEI
UniProt Q86V87: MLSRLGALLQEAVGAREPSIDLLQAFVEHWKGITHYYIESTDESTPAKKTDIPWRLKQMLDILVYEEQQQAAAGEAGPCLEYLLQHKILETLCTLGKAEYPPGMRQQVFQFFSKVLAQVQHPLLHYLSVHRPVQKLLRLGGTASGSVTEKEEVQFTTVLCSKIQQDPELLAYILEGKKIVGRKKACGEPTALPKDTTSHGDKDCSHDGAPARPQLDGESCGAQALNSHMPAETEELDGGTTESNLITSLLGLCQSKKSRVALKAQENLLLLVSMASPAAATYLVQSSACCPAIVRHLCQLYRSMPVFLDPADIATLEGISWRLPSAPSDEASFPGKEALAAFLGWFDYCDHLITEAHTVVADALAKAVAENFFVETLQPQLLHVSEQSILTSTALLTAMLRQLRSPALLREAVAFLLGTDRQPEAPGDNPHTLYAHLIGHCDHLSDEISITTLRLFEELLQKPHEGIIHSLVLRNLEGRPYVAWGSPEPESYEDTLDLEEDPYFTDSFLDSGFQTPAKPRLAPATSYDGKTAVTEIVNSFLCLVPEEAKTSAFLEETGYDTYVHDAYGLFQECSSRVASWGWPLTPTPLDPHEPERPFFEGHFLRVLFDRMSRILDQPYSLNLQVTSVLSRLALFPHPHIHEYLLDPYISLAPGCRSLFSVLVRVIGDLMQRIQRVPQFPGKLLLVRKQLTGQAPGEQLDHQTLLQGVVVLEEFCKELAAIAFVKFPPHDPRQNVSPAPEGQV
UniProt Q9NYK6: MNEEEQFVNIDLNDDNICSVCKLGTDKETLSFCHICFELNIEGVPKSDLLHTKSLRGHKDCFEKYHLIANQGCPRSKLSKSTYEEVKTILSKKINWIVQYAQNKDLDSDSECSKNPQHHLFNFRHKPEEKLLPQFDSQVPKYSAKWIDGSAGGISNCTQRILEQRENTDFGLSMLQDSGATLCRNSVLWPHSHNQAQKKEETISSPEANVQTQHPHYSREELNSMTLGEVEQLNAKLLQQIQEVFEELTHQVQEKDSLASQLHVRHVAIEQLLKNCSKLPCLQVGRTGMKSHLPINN
UniProt P41162: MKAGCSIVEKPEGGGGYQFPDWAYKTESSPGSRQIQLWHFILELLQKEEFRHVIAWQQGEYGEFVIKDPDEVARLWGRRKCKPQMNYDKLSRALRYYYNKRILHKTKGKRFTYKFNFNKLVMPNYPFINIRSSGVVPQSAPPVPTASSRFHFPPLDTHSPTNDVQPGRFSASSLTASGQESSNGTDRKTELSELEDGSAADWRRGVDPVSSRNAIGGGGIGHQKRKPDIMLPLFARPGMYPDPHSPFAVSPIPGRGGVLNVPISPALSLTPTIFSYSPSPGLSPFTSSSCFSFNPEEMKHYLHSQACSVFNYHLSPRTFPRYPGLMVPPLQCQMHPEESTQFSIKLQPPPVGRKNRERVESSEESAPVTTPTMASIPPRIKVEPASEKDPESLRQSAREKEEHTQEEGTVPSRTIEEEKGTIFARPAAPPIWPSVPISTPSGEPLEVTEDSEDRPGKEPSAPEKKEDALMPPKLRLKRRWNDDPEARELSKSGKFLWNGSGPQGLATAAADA
UniProt P00742, whole entry, looked up: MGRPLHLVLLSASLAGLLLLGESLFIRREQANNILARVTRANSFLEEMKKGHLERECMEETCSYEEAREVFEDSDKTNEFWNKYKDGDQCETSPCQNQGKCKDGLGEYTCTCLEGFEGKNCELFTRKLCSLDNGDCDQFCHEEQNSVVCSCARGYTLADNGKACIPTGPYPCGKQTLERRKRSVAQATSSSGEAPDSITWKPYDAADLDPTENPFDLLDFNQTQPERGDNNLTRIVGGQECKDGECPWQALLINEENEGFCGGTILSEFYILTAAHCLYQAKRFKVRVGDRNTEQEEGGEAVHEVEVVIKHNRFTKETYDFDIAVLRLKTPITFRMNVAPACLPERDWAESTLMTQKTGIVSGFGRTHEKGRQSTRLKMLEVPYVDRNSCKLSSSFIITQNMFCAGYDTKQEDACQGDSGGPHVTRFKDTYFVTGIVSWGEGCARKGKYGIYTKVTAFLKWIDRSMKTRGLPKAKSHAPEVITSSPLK
UniProt Q56NI9: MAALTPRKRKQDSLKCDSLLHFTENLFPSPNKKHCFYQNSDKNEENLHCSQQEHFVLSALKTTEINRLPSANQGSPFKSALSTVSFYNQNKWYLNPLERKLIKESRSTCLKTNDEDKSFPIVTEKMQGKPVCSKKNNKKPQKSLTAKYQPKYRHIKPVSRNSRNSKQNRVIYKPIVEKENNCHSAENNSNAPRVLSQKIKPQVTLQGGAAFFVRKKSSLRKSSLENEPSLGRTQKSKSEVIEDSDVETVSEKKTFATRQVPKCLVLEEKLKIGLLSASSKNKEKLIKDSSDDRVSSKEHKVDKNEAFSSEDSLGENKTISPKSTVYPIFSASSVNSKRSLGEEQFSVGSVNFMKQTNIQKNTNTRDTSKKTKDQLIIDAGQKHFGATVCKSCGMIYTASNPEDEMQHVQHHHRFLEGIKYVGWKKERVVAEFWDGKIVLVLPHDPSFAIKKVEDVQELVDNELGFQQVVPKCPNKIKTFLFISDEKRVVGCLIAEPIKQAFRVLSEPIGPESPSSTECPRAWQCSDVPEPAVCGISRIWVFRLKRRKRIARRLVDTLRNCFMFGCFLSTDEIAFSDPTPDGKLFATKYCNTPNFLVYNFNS
UniProt P34910: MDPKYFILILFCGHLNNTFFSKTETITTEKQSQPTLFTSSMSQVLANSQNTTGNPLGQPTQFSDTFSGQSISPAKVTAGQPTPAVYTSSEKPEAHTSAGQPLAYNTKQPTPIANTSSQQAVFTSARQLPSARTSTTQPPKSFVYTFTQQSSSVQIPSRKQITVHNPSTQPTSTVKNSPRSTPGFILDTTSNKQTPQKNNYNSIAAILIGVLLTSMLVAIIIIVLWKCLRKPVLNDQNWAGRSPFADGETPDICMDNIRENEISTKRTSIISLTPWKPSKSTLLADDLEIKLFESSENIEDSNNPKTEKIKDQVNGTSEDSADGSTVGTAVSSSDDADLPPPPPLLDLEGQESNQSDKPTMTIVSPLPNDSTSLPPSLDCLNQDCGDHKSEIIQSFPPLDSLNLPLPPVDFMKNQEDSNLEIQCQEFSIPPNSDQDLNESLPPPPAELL
UniProt Q9NY74: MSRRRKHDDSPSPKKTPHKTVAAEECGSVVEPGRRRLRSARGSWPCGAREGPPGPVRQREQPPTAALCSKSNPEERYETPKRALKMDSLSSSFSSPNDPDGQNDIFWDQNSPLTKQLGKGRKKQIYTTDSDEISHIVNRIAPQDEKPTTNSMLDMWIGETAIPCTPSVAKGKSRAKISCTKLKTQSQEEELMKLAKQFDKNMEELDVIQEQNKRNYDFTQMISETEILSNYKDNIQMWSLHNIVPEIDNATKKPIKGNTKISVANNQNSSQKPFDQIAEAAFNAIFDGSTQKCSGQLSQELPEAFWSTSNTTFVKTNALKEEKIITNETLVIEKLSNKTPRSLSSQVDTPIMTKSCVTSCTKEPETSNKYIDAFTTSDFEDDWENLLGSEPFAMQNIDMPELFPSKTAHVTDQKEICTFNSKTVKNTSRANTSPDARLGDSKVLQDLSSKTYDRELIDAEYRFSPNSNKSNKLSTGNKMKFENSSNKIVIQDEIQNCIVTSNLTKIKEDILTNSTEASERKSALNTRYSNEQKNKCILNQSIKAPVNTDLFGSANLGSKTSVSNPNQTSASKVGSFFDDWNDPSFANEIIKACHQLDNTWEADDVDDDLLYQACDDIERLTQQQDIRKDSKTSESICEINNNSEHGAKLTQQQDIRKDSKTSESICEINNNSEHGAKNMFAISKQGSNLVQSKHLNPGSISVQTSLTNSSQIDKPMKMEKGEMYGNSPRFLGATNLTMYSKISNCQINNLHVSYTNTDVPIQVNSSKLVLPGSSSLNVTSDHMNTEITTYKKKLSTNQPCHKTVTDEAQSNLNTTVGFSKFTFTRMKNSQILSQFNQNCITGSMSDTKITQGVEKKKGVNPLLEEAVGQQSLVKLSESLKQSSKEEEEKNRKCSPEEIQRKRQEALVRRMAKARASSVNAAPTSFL
UniProt P25116: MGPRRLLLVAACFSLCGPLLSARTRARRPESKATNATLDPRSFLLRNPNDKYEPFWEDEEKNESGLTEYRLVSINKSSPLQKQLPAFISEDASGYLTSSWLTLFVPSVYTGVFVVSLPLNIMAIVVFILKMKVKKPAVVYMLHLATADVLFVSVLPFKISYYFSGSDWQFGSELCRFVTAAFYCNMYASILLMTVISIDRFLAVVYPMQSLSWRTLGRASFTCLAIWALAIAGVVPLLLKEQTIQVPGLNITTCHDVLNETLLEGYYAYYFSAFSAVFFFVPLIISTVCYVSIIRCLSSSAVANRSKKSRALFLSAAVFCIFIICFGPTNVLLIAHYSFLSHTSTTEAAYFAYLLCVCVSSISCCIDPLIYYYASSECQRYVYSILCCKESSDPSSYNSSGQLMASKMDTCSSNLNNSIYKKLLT
UniProt Q5XKK7: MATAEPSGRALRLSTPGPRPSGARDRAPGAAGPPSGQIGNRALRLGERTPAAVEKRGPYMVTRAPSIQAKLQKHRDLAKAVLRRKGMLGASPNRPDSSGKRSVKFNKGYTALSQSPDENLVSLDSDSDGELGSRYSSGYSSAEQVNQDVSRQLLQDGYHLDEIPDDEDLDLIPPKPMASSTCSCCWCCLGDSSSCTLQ

Assays:
Assay in all cases: log2 fold change, soluble protein after heating vs DMSO (PISA); higher = thermal stabilisation; K562 lysate, 10 uM; active = over 0.2 and 3.5 SD of the protein, either way, in both replicates (recomputed)
[1] = compound: CCn1c(C(=O)N(C2CC2)C2CC2)cc2c3c(ncn3C)c(Nc3cc(C)n(C)n3)nc21
In short: (§1)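 To prepare the extract, K562 pellets were dounce-homogenised in PBS pH 7.4 with 1 mM MgCl2, giving crude material at 1 mg/mL protein. This was treated with 10 μM compound for 30 min, then heated in aliquots for 3 min over 48°C-58°C before pooling and addition of NP-40 to 0.5% at 4°C. Centrifugation at 21,000xg for 90 min left soluble protein in the supernatant, which TMTpro 16plex LC-MS/MS quantified with equalised channel sums. Results are log-two fold changes in thermal stability compared with solvent controls, from duplicates.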

saracatinib = compound: CN1CCN(CCOc2cc(OC3CCOCC3)c3c(Nc4c(Cl)ccc5c4OCO5)ncnc3c2)CC1 [saracatinib]
In short: as §1

Tubastatin A = compound: CN1CCc2c(c3ccccc3n2Cc2ccc(C(=O)NO)cc2)C1 [Tubastatin A]
In short: as §1

[2] = compound: CNc1nc(-c2ccc3c(N)n[nH]c3c2)cc(N2C[C@@H](C(=O)NC3CCCCC3)CC[C@H]2C)n1
In short: as §1

alisertib = compound: COc1cc(Nc2ncc3c(n2)-c2ccc(Cl)cc2C(c2c(F)cccc2OC)=NC3)ccc1C(=O)O [alisertib]
In short: as §1

gefitinib = compound: COc1cc2ncnc(Nc3ccc(F)c(Cl)c3)c2cc1OCCCN1CCOCC1 [gefitinib]
In short: as §1

vemurafenib = compound: CCCS(=O)(=O)Nc1ccc(F)c(C(=O)c2c[nH]c3ncc(-c4ccc(Cl)cc4)cc23)c1F [vemurafenib]
In short: as §1

[3] = compound: CC[C@@H]1C(=O)N(C)c2cnc(Nc3ccc(C(=O)NC4CCN(C)CC4)cc3OC)nc2N1C1CCCC1
In short: as §1

[4] = compound: CCn1cc(-c2ccnc3[nH]c(-c4cccc(CN(C)C)c4)cc23)c(-c2ccc(NC(=O)N(C)C)cc2)n1
In short: as §1

[5] = compound: CN1CCC(CNc2ccc3ncc(-c4cccc(OC(F)(F)F)c4)n3n2)CC1
In short: as §1

alvocidib = compound: CN1CC[C@H](c2c(O)cc(O)c3c(=O)cc(-c4ccccc4Cl)oc23)[C@H](O)C1 [alvocidib]
In short: as §1

defactinib = compound: CNC(=O)c1ccc(Nc2ncc(C(F)(F)F)c(NCc3nccnc3N(C)S(C)(=O)=O)n2)cc1 [defactinib]
In short: as §1

encorafenib = compound: COC(=O)N[C@@H](C)CNc1nccc(-c2cn(C(C)C)nc2-c2cc(Cl)cc(NS(C)(=O)=O)c2F)n1 [encorafenib]
In short: as §1

[6] = compound: COC(=O)[C@H](CCSC)NC(=O)C1=C(C=C(C=C1)NC[C@H](CS)N)C2=CC=CC=C2
In short: as §1

[7] = compound: CCCS(=O)(=O)Nc1ccc(F)c(C(=O)c2c[nH]c3ncc(Cl)cc23)c1F
In short: as §1

volasertib = compound: CC[C@@H]1C(=O)N(C)c2cnc(Nc3ccc(C(=O)N[C@H]4CC[C@H](N5CCN(CC6CC6)CC5)CC4)cc3OC)nc2N1C(C)C [volasertib]
In short: as §1

[8] = compound: COc1cc2nc(-c3cc(F)ccc3O)nc(N[C@@H]3CNC[C@H]3C(C)(C)O)c2cc1OC
In short: as §1

sotrastaurin = compound: CN1CCN(c2nc(C3=C(c4c[nH]c5ccccc45)C(=O)NC3=O)c3ccccc3n2)CC1 [sotrastaurin]
In short: as §1

[9] = compound: CNC(=O)C1=CC=CC=C1NC2=NC(=NC=C2Cl)NC3=C(C=C(C=C3)N4CCOCC4)OC
In short: as §1

barasertib = compound: CCN(CCCOc1ccc2c(Nc3cc(CC(=O)Nc4cccc(F)c4)[nH]n3)ncnc2c1)CCOP(=O)(O)O [barasertib]
In short: as §1

Measured: log2 fold change

FAM3A (UniProt Q9BU27)
inactive: [1] -0.086 | saracatinib -0.204 | Tubastatin A 0.016 | [2] 0.49 | alisertib 0.108 | gefitinib 0.049

ETV5 isoform 2 (UniProt P41161)
inactive: vemurafenib -0.036 | [3] -0.155 | [4] 0.009 | [5] 0.014 | alvocidib -0.092 | defactinib 0.08 | encorafenib 0.054 | [6] -0.095

FAM234B (UniProt A2RU67)
inactive: [7] 0.106 | volasertib -0.047 | [1] -0.127 | Tubastatin A -0.028 | [8] 0.131

FAM160B2 (UniProt Q86V87)
inactive: vemurafenib 0.04 | [3] 0.018 | [1] 0.014 | [4] 0.125 | [5] -0.242 | sotrastaurin 0.132 | alvocidib -0.222 | Tubastatin A -0.088 | [9] 0.12 | defactinib 0.216 | encorafenib 0.158 | [6] -0.236 | alisertib 0.04 | gefitinib -0.022

FAM120A, A0A494C0Y9
inactive: [1] 0.004 | saracatinib -0.169 | Tubastatin A -0.171 | [9] -0.129 | [2] 0.069

FAM72C (UniProt H0Y354)
inactive: vemurafenib -0.157 | [1] 0.138 | [4] -0.204 | [5] 0 | alvocidib -0.086 | Tubastatin A -0.158 | defactinib 0.16

EURL (UniProt Q9NYK6)
inactive: [7] 0.188 | volasertib -0.113 | [4] 0.038 | [5] -0.045 | saracatinib 0.035 | alvocidib -0.031 | [9] 0.12 | [2] 0.074 | [8] -0.075

EXD2 (UniProt Q9NVH0)
inactive: vemurafenib -0.047 | [1] -0.145 | saracatinib 0.049 | sotrastaurin 0.038 | Tubastatin A -0.186 | [9] 0.141 | defactinib -0.018 | [2] 0.168

FAM110A (UniProt Q9BQ89)
inactive: [7] -0.011 | barasertib -0.061 | volasertib -0.07 | [4] -0.117 | [5] 0.058 | sotrastaurin 0.259 | alvocidib 0.008 | [9] -0.282 | [8] -0.099

ERN1 (UniProt O75460)
inactive: [3] 0.073 | [9] 0.271 | encorafenib 0.049 | [6] -0.074

ETV3 (UniProt P41162)
inactive: [3] 0.096 | [1] 0.051 | Tubastatin A -0.034 | encorafenib 0.061 | [6] 0.159

F10 (UniProt P00742)
inactive: barasertib 0.058

FAM171A1 (UniProt Q5VUB5)
inactive: [7] 0.208 | volasertib -0.207 | [1] 0.097 | saracatinib 0.229 | Tubastatin A -0.139 | [9] -0.089 | [2] -0.026 | [8] 0.161

ESCO2 (UniProt Q56NI9)
inactive: [7] 0.022 | [3] 0.032 | volasertib 0.135 | [1] -0.041 | [4] 0.473 | [5] -0.282 | saracatinib 0.112 | sotrastaurin 0.146 | alvocidib 0.125 | Tubastatin A -0.262 | [9] 0.019 | [2] 0.499 | encorafenib 0.105 | [6] -0.037 | [8] 0.023

ERV3-1 (UniProt Q14264)
inactive: [3] 0.043 | saracatinib 0 | sotrastaurin -0.071 | [9] 0.088 | [2] -0.118 | encorafenib -0.057 | [6] -0.09

EVI2B isoform 2 (UniProt P34910)
inactive: [4] 0.045 | [5] 0.038 | alvocidib -0.073

FAM122B isoform 2 (UniProt Q7Z309)
inactive: [1] 0.149 | Tubastatin A 0.027

ETAA1 (UniProt Q9NY74)
inactive: vemurafenib -0.105 | [3] 0.255 | [9] 0.054 | defactinib 0.191 | encorafenib 0.239 | [6] -0.159

F2R (UniProt P25116)
inactive: [4] -0.014 | [5] 0.284 | sotrastaurin 0.083 | alvocidib -0.063

FAM171A2 (UniProt A8MVW0)
inactive: [9] -0.089

FAM219B (UniProt Q5XKK7)
inactive: barasertib -0.011 | [4] 0.115 | [5] -0.139 | sotrastaurin 0.042 | alvocidib -0.051
